Where a name gives a salt, the structure may show the parent alone. The list shows a part of the results. Hit calls seldom repeat between salt and free forms of one compound.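 Kinases, fused to nanoluciferase, were expressed in K562 cells; luminescence was measured every 4 h from 2 to 18 h as percent of control (DMSO = 100%, positive control = 0%). A time point is decreased if signal falls significantly (2 sigma). Hits were called by the authors by a rule that is not shown; the count of time points alone does not decide it.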
The molecules below were run against LIMK1 (UniProt P53667) (assay: number of time points (of 5) at which kinase-Nluc abundance scored as decreased, DMSO-normalised (count); higher = more persistent destabilization). Conditions: K562; 2-18 h.

The chains behind the UniProt entries cited, without tags or fusion partners. Where a name states a change or a piece, a line headed by the entry shows the natural chain unless it says otherwise.
UniProt P53667: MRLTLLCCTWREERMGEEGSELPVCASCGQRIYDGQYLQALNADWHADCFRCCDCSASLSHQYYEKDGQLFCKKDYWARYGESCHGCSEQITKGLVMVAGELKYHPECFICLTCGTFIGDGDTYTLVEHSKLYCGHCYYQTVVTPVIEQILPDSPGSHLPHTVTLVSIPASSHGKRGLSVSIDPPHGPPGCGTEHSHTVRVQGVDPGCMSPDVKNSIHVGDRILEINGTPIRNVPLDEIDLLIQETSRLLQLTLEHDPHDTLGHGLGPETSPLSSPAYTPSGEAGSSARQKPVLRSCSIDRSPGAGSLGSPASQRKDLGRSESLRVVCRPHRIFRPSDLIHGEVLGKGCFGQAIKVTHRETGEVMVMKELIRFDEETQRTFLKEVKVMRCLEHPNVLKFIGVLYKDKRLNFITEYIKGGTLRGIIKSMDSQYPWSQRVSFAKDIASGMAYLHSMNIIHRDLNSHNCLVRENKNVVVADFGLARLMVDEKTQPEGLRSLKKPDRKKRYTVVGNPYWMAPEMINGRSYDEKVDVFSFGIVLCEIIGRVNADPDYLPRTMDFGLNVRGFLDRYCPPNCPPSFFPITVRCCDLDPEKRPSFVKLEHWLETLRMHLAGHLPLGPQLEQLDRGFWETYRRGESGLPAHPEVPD

SMILES	number of time points
OC(COc1ccc(C(F)(F)F)cc1)CN(Cc1ccccc1)Cc1ccccc1 (centres undefined) (2.5 µM)	0
C[C@@H]1C(=O)O[C@H](C)[C@H]1C[C@@H](O)[C@](C)(O)[C@H]1CC[C@@]2(O)C3=CC(=O)[C@@H]4C[C@@H](O)[C@@H](O)C[C@]4(C)[C@H]3CC[C@]12C [Cyasterone] (10 µM)	0
Cc1c(CN2CCN(C(=O)[C@H](C)O)CC2)sc2c(N3CCOCC3)nc(-c3cnc(N)nc3)nc12 [Apitolisib] (10 µM)	0
CC(C)(C)NC(=O)c1cncn1C1CCN(c2ccc(-c3nnc(C(F)(F)F)o3)cn2)CC1 (10 µM)	0
NCc1ccc(Nc2ncc(F)c(Nc3ccccc3)n2)cc1 (10 µM)	0
COC1(c2sc3c(N4CCOCC4)nc(-c4cnc(N)nc4)nc3c2C)COC1 (2.5 µM)	0
COc1cc2c[n+](C)c3c4cc5c(cc4ccc3c2cc1OC)OCO5 [Nitidine (chloride)] (2 µM)	0
N#Cc1ccc2ncnc(NC3CCC(N4CCOCC4)CC3)c2c1 (centres undefined) (10 µM)	0
COc1ccc2c(c1O)OC(C)(C)c1c-2ccc2c1C(=O)N(c1ccc(C(=O)c3ccccc3)cc1)C2=O [Ampkinone] (10 µM)	0
CC1=C2C(=O)O[C@@H](c3ccoc3)[C@]2(C)CCC1 [Fraxinellone] (10 µM)	0
CS(=O)(=O)c1ccc(-c2cnc(N)c(C(=O)Nc3ccccc3)n2)cc1 (10 µM)	0
O=C(NC(NC(=S)Nc1ccc(F)c([N+](=O)[O-])c1)C(Cl)(Cl)Cl)C(c1ccccc1)c1ccccc1 (centres undefined) (10 µM)	0
COc1cc(C(N)=O)nc(-c2cccc(C#C[C@]3(O)CCN(C)C3=O)c2)c1 (10 µM)	0
O=C(Nc1cc(Oc2cc(F)c(NC(=O)C3(C(=O)Nc4ccc(F)cc4)CC3)cc2F)ccn1)C1CC1 [Altiratinib] (10 µM)	0
COc1ccc(Cl)cc1NC(=O)Nc1cc(C)nc2ccccc12 (2.5 µM)	0
COc1ccc(CC(=O)Nc2nc3c(s2)CCc2ccccc2-3)cc1OC (10 µM)	0
N[C@H](Cc1c[nH]c2ccccc12)C(=O)N/N=C/c1ccc2nccnc2c1 [Rhosin (hydrochloride)] (10 µM)	0
CC(C)(C)c1ccc(S(=O)(=O)Nc2ccc(-n3ccnc3)cc2)cc1 (10 µM)	0
Cc1ccc(-c2c(C(=O)CF)n(CCCO)c3ncnc(N)c23)cc1 (10 µM)	0

An excerpt from above in order of SMILES length, largest number first.
SMILES	number of time points
OC(COc1ccc(C(F)(F)F)cc1)CN(Cc1ccccc1)Cc1ccccc1 (centres undefined) (2.5 µM)	0
CC1=C2C(=O)O[C@@H](c3ccoc3)[C@]2(C)CCC1 [Fraxinellone] (10 µM)	0
NCc1ccc(Nc2ncc(F)c(Nc3ccccc3)n2)cc1 (10 µM)	0
